{"source": "paper PMC8384837", "conditions_in_all_cases": "yeast three-hybrid, YBZ-1, SC-Leu-His + 0.5 mM 3-AT, 4 days", "key": {"[1]": {"target": "T1, PUM1 PUF domain R5-GRF C1007G + Q1011F (Homo sapiens) (UniProt Q14671)", "T1 sequence": "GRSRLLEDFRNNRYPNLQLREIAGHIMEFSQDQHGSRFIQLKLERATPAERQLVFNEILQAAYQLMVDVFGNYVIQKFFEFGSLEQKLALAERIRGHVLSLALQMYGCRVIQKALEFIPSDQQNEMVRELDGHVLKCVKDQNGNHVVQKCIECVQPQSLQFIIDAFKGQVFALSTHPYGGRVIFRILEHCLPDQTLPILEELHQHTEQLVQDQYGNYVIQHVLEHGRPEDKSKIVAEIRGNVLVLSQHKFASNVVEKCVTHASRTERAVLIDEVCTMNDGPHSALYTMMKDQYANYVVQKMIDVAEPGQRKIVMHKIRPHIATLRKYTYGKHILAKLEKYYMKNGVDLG"}, "[2]": {"target": "T2, PUM1 PUF domain R5-GRL C1007G + Q1011L (Homo sapiens) (UniProt Q14671)", "T2 sequence": "T1 sequence with F184L"}, "[3]": {"target": "T3, PUM1 PUF domain R5-GRP C1007G + Q1011P (Homo sapiens) (UniProt Q14671)", "T3 sequence": "T1 sequence with F184P"}, "[4]": {"target": "T4, PUM1 PUF domain R5-GRV C1007G + Q1011V (Homo sapiens) (UniProt Q14671)", "T4 sequence": "T1 sequence with F184V"}, "[5]": {"target": "T5, PUM1 PUF domain R5-GRW C1007G + Q1011W (Homo sapiens) (UniProt Q14671)", "T5 sequence": "T1 sequence with F184W"}, "[6]": {"target": "T6, PUM1 PUF domain R5-GSE C1007G + R1008S + Q1011E (Homo sapiens) (UniProt Q14671)", "T6 sequence": "T1 sequence with R181S, F184E"}, "[7]": {"target": "T7, PUM1 PUF domain R5-GSK C1007G + R1008S + Q1011K (Homo sapiens) (UniProt Q14671)", "T7 sequence": "T1 sequence with R181S, F184K"}, "[8]": {"target": "T8, PUM1 PUF domain R5-GTE C1007G + R1008T + Q1011E (UniProt Q14671)", "T8 sequence": "T1 sequence with R181T, F184E"}, "[9]": {"target": "T9, PUM1 PUF domain R5-GVD C1007G + R1008V + Q1011D (Homo sapiens) (UniProt Q14671)", "T9 sequence": "T1 sequence with R181V, F184D"}, "[10]": {"target": "T10, PUM1 PUF domain R5-GWL C1007G + R1008W + Q1011L (Homo sapiens) (UniProt Q14671)", "T10 sequence": "T1 sequence with R181W, F184L"}, "[11]": {"target": "T11, PUM1 PUF domain R5-GWY C1007G + R1008W + Q1011Y (UniProt Q14671)", "T11 sequence": "T1 sequence with R181W, F184Y"}, "[12]": {"target": "T12, PUM1 PUF domain R5-HLK C1007H + R1008L + Q1011K (UniProt Q14671)", "T12 sequence": "T1 sequence with G180H, R181L, F184K"}, "[13]": {"target": "T13, PUM1 PUF domain R5-IFM C1007I + R1008F + Q1011M (UniProt Q14671)", "T13 sequence": "T1 sequence with G180I, R181F, F184M"}, "[14]": {"target": "T14, PUM1 PUF domain R5-IRP C1007I + Q1011P (UniProt Q14671)", "T14 sequence": "T1 sequence with G180I, F184P"}, "[15]": {"target": "T15, PUM1 PUF domain R5-IYM C1007I + R1008Y + Q1011M (UniProt Q14671)", "T15 sequence": "T1 sequence with G180I, R181Y, F184M"}, "[16]": {"target": "T16, PUM1 PUF domain R5-LFQ C1007L + R1008F (Homo sapiens) (UniProt Q14671)", "T16 sequence": "T1 sequence with G180L, R181F, F184Q"}, "[17]": {"target": "T17, PUM1 PUF domain R5-LFR C1007L + R1008F + Q1011R (Homo sapiens) (UniProt Q14671)", "T17 sequence": "T1 sequence with G180L, R181F, F184R"}, "[18]": {"target": "T18, PUM1 PUF domain R5-LFS C1007L + R1008F + Q1011S (UniProt Q14671)", "T18 sequence": "T1 sequence with G180L, R181F, F184S"}, "[19]": {"target": "T19, PUM1 PUF domain R5-LHC C1007L + R1008H + Q1011C (Homo sapiens) (UniProt Q14671)", "T19 sequence": "T1 sequence with G180L, R181H, F184C"}, "[20]": {"target": "T20, PUM1 PUF domain R5-LLR C1007L + R1008L + Q1011R (UniProt Q14671)", "T20 sequence": "T1 sequence with G180L, R181L, F184R"}, "[21]": {"target": "T21, PUM1 PUF domain R5-LNA C1007L + R1008N + Q1011A (UniProt Q14671)", "T21 sequence": "T1 sequence with G180L, R181N, F184A"}, "[22]": {"target": "T22, PUM1 PUF domain R5-LNS C1007L + R1008N + Q1011S (UniProt Q14671)", "T22 sequence": "T1 sequence with G180L, R181N, F184S"}, "[23]": {"target": "T23, PUM1 PUF domain R5-LNT C1007L + R1008N + Q1011T (UniProt Q14671)", "T23 sequence": "T1 sequence with G180L, R181N, F184T"}, "[24]": {"target": "T24, PUM1 PUF domain R5-LWA C1007L + R1008W + Q1011A (Homo sapiens) (UniProt Q14671)", "T24 sequence": "T1 sequence with G180L, R181W, F184A"}, "[25]": {"target": "T25, PUM1 PUF domain R5-LWG C1007L + R1008W + Q1011G (Homo sapiens) (UniProt Q14671)", "T25 sequence": "T1 sequence with G180L, R181W, F184G"}, "[26]": {"target": "T26, PUM1 PUF domain R5-LYA C1007L + R1008Y + Q1011A (UniProt Q14671)", "T26 sequence": "T1 sequence with G180L, R181Y, F184A"}, "[27]": {"target": "T27, PUM1 PUF domain R5-LYC C1007L + R1008Y + Q1011C (UniProt Q14671)", "T27 sequence": "T1 sequence with G180L, R181Y, F184C"}, "[28]": {"target": "T28, PUM1 PUF domain R5-LYD C1007L + R1008Y + Q1011D (UniProt Q14671)", "T28 sequence": "T1 sequence with G180L, R181Y, F184D"}, "[29]": {"target": "T29, PUM1 PUF domain R5-LYG C1007L + R1008Y + Q1011G (Homo sapiens) (UniProt Q14671)", "T29 sequence": "T1 sequence with G180L, R181Y, F184G"}, "[30]": {"target": "T30, PUM1 PUF domain R5-LYL C1007L + R1008Y + Q1011L (UniProt Q14671)", "T30 sequence": "T1 sequence with G180L, R181Y, F184L"}, "[31]": {"target": "T31, PUM1 PUF domain R5-LYM C1007L + R1008Y + Q1011M (UniProt Q14671)", "T31 sequence": "T1 sequence with G180L, R181Y, F184M"}, "[32]": {"target": "T32, PUM1 PUF domain R5-LYS C1007L + R1008Y + Q1011S (Homo sapiens) (UniProt Q14671)", "T32 sequence": "T1 sequence with G180L, R181Y, F184S"}, "[33]": {"target": "T33, PUM1 PUF domain R5-LYV C1007L + R1008Y + Q1011V (UniProt Q14671)", "T33 sequence": "T1 sequence with G180L, R181Y, F184V"}, "[34]": {"target": "T34, PUM1 PUF domain R5-MKC C1007M + R1008K + Q1011C (Homo sapiens) (UniProt Q14671)", "T34 sequence": "T1 sequence with G180M, R181K, F184C"}, "[35]": {"target": "T35, PUM1 PUF domain R5-MRE C1007M + Q1011E (Homo sapiens) (UniProt Q14671)", "T35 sequence": "T1 sequence with G180M, F184E"}, "[36]": {"target": "T36, PUM1 PUF domain R5-MRV C1007M + Q1011V (Homo sapiens) (UniProt Q14671)", "T36 sequence": "T1 sequence with G180M, F184V"}, "[37]": {"target": "T37, PUM1 PUF domain R5-NAG C1007N + R1008A + Q1011G (UniProt Q14671)", "T37 sequence": "T1 sequence with G180N, R181A, F184G"}, "[38]": {"target": "T38, PUM1 PUF domain R5-NAV C1007N + R1008A + Q1011V (Homo sapiens) (UniProt Q14671)", "T38 sequence": "T1 sequence with G180N, R181A, F184V"}, "[39]": {"target": "T39, PUM1 PUF domain R5-NDG C1007N + R1008D + Q1011G (UniProt Q14671)", "T39 sequence": "T1 sequence with G180N, R181D, F184G"}, "[40]": {"target": "T40, PUM1 PUF domain R5-NDI C1007N + R1008D + Q1011I (UniProt Q14671)", "T40 sequence": "T1 sequence with G180N, R181D, F184I"}}, "note": "Changes are numbered by the printed parent chain. The list shows a part of the results. For some of these results: At the low end of the ranking the order means little.", "data": [{"sequence": "GGCUAGAACUAGUGGAUCCCCCGGCGCCCGGCGGCUCGAGCCCGGGUAAGUGUCAAUAGUCUGCAUGCCGCCGGGCGCCAUGCCUGCAGGUCGACUCUAGAAAACAUG", "values": [{"measurement": "binding signal (log2 enrichment (interaction score))", "setting": "[1]", "value": -0.8}, {"measurement": "binding signal (log2 enrichment (interaction score))", "setting": "[2]", "value": 0.23}, {"measurement": "binding signal (log2 enrichment (interaction score))", "setting": "[3]", "value": 0.05}, {"measurement": "binding signal (log2 enrichment (interaction score))", "setting": "[4]", "value": -0.08}, {"measurement": "binding signal (log2 enrichment (interaction score))", "setting": "[5]", "value": 0.49}, {"measurement": "binding signal (log2 enrichment (interaction score))", "setting": "[6]", "value": -2.59}, {"measurement": "binding signal (log2 enrichment (interaction score))", "setting": "[7]", "value": -0.95}, {"measurement": "binding signal (log2 enrichment (interaction score))", "setting": "[8]", "value": "< -7.87"}, {"measurement": "binding signal (log2 enrichment (interaction score))", "setting": "[9]", "value": 0.22}, {"measurement": "binding signal (log2 enrichment (interaction score))", "setting": "[10]", "value": -0.51}, {"measurement": "binding signal (log2 enrichment (interaction score))", "setting": "[11]", "value": -5.01}, {"measurement": "binding signal (log2 enrichment (interaction score))", "setting": "[12]", "value": "< -6.06"}, {"measurement": "binding signal (log2 enrichment (interaction score))", "setting": "[13]", "value": "< -7.98"}, {"measurement": "binding signal (log2 enrichment (interaction score))", "setting": "[14]", "value": "< -5.49"}, {"measurement": "binding signal (log2 enrichment (interaction score))", "setting": "[15]", "value": "< -5.47"}, {"measurement": "binding signal (log2 enrichment (interaction score))", "setting": "[16]", "value": -1.43}, {"measurement": "binding signal (log2 enrichment (interaction score))", "setting": "[17]", "value": -0.06}, {"measurement": "binding signal (log2 enrichment (interaction score))", "setting": "[18]", "value": -2.91}, {"measurement": "binding signal (log2 enrichment (interaction score))", "setting": "[19]", "value": 0.11}, {"measurement": "binding signal (log2 enrichment (interaction score))", "setting": "[20]", "value": -3.69}, {"measurement": "binding signal (log2 enrichment (interaction score))", "setting": "[21]", "value": "< -5.36"}, {"measurement": "binding signal (log2 enrichment (interaction score))", "setting": "[22]", "value": "< -6.66"}, {"measurement": "binding signal (log2 enrichment (interaction score))", "setting": "[23]", "value": "< -6.07"}, {"measurement": "binding signal (log2 enrichment (interaction score))", "setting": "[24]", "value": -0.75}, {"measurement": "binding signal (log2 enrichment (interaction score))", "setting": "[25]", "value": -0.45}, {"measurement": "binding signal (log2 enrichment (interaction score))", "setting": "[26]", "value": -4.93}, {"measurement": "binding signal (log2 enrichment (interaction score))", "setting": "[27]", "value": -2.31}, {"measurement": "binding signal (log2 enrichment (interaction score))", "setting": "[28]", "value": -3.87}, {"measurement": "binding signal (log2 enrichment (interaction score))", "setting": "[29]", "value": -1.45}, {"measurement": "binding signal (log2 enrichment (interaction score))", "setting": "[30]", "value": "< -8.41"}, {"measurement": "binding signal (log2 enrichment (interaction score))", "setting": "[31]", "value": "< -6.92"}, {"measurement": "binding signal (log2 enrichment (interaction score))", "setting": "[32]", "value": -1.9}, {"measurement": "binding signal (log2 enrichment (interaction score))", "setting": "[33]", "value": -4.69}, {"measurement": "binding signal (log2 enrichment (interaction score))", "setting": "[34]", "value": -2.81}, {"measurement": "binding signal (log2 enrichment (interaction score))", "setting": "[35]", "value": -0.4}, {"measurement": "binding signal (log2 enrichment (interaction score))", "setting": "[36]", "value": 0.39}, {"measurement": "binding signal (log2 enrichment (interaction score))", "setting": "[37]", "value": -4.14}, {"measurement": "binding signal (log2 enrichment (interaction score))", "setting": "[38]", "value": -2.81}, {"measurement": "binding signal (log2 enrichment (interaction score))", "setting": "[39]", "value": "< -6.59"}, {"measurement": "binding signal (log2 enrichment (interaction score))", "setting": "[40]", "value": -4.28}]}]}
